Test system: A. actinomycetemcomitans planktonic cells
Details: CPC 0.02%

Structure (SMILES): CCCCCCCCCCCCCCCC[n+]1ccccc1 [CPC, cetylpyridinium chloride]
- 0.02% CPC as multiple of the MIC against planktonic cells: 10 times the MIC
